One series concerns the target T1, MntR (Bacillus subtilis) (UniProt P54512).
T1 sequence (looked up): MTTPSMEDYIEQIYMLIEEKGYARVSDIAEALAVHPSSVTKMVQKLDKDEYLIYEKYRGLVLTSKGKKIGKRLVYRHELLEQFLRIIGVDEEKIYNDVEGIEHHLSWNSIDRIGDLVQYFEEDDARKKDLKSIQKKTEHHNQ
Put plainly: EMSA. Particulars: 10 mM Tris-HCl pH 7.5, 43 mM NaCl, 1 mM MnCl2, 1 mM DTT, 5% glycerol, 1 ug poly[dI-dC] per 14 ul, 23 C 15 min, 5% PAGE in 40 mM Tris-acetate at 4 C, recombinant protein, residues 1-142, label: biotin, probe letters rebuilt from the primers and the genome. Background: Mobility shift assays separate free from complexed probe on a gel.

Another series addresses T2, AhrC (Bacillus subtilis) (UniProt P17893).
T2 sequence: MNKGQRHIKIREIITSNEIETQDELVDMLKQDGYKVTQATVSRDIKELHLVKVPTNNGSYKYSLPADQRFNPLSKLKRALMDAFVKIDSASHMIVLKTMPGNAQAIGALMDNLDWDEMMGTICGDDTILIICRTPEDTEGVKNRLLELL
The experiment in a line: EMSA. Particulars: 1 mM Mn2+; 10 mM Tris-HCl pH 7.5, 43 mM NaCl, 1 mM MnCl2, 1 mM DTT, 5% glycerol, 1 ug poly[dI-dC] per 14 ul, 23 C 15 min; 5% PAGE in 40 mM Tris-acetate at 4 C; recombinant protein; residues 1-149; label: biotin; probe letters rebuilt from the primers and the genome.

For some assays here: Weaker means in comparison with the reference protein, sequence or condition of that experiment. For some assays here: Protein sequences can lack the tags named with them. For some assays here: Construct, isoform or probe ends are uncertain for at least one entry. For some assays here: At least one verdict was read from the data and is not stated in words by the source.

For “ATCGAATTCGGCTTTACAATGGAGAATGTGATGGCGATGGGCGACAGCCTTAATGACATTGCGATGATCAAAGAAGCGGGTCTTGGCGTCGCAATGGGCAATGCGCAAGACATCGTAAAAGAAACGGCTGATTATATCACGGATACAAATATTGAGGATGGTGTCGCTAAAGCGATTCGCCATTGGGTACTATAAAAAAAGAGAGTCCTAAGATGGACTCTCTTTTTTAGTTTGGCAGGTTTTATTCTGGGACCATGGTAGGTTTTCTGACAAAAGTATTTCACAAACTGATATGATTCACTTATAATGAAATAAAGTTCAAAAATTCGGAATAGTCGTTCCGAATTTCGGGACAATAAATGACATAAAGCATATCGTTTGCTTTGGCAGGAGGGATTCTGTGTTTCAGATTGATTTAAACTGTGATTTAGGAGAAAGCTTCGG (double strand) [PpxpA (Fig 5A)]”, the binding result with MntR (Bacillus subtilis) (1 mM Mn2+) and in the series with AhrC (Bacillus subtilis) was “binds” in each case. For the sequence “ATGAAGCTTGTCTCACCTGAATTCTGTTTGTTTTTGCCGTACAACAAAGAGTTTCCTTAAGGCAAATTATTTTATCTACATCATATGACCATCCCGGTTTCTTGTCAACCGAAAATGTTCAAAATACACTTCTGAATTTTTCCCTGTTATGTAACATGATATGTAGGGATTCGTGATAAGGTCCCATATAAAAAGACATCGTTTCATTTCGAAACGATGCCTCCTGTATCTAATGAGTCTAGGCTTCCTTCCGCAGCCCGCGGAATATAAGGCCCAGCAAGAACACGAAGATGGCTGCCCCGATGATGGCCGGGA (double strand) [PmntH Wt]”, the binding result with MntR (Bacillus subtilis) (1 mM Mn2+, two bands) was “binds”; in the series with AhrC (Bacillus subtilis) it was “binds”. As to “ATGGGATCCATTATGCTCGGGGGCTTTCTCGCTGACTTTTTCACAGTGCAAATGATTTTTTATGCAAGCTCTATTCTATATTTTTTGAGTGGATTGATGATGATGAAAACAGGCTGACGCGGTCAGCCTGTTTTTTTATGCGGCTGAAATGCGGCACCGCATCAACGTTTTTGTGCTGGAGTCGTGCTGATTTTTTTTGAGCGGAATTCCCATTGAACAGAAAATTTATAAATGAATAAAAATATTAAATATACGATTGAATTAATTTTTATTCATGTTATAATGTTAAATAATTTCACAAAGACCAAGAGGG (double strand) [PargC]”, the binding result with MntR (Bacillus subtilis) (with Mn2+) and with AhrC (Bacillus subtilis) was “binds” each time. In the case of “ATGGGATCCATTTCTCCTCCTCTTTGCCATCAATGTCCGATTGTTTTATCTTATGTTGTCAGTTCTTAGACATGTGACATTAAATTAGCCAAAAGCATGTTTTATTTACACAGGACAAAAAGTTTCCCTCATGCAAAATTATCGCGTTTGGCCATTTTTGTCAAGCTGATTTACATAAAAAAACCGGCTGGGTCAGCAGCCGGTCCAAACGAGAAGGGATGTATTCAACGAACACTTTTACTGTAACAGCACAGTGTCATTTATTCAAAATAGCAAAATGCTTTTTTCTTAACCATGCTGTGTGAA (double strand) [PmntA]”, the binding result with MntR (Bacillus subtilis) (1 mM Mn2+) and with AhrC (Bacillus subtilis) was “binds” throughout. For the sequence “GCAACTTTTCTGCTTATTTGTTCTCTTTCACTTGCCATTTTTTCCTCCTATAAAACTGCACAAAAAAATAGGAGTGCTCTATATACGCTCTCCGTATCCTTTCCTGTGTAATCACTTTGTTTATCATACCAATTCAATTTCGAGTGGGTCTATAGCAACGTTGTTTCCTGTTTACTAATAAATAAGGTGACAGAAAAAAAGTTGGAGCTATGCTAAAAAGGTCATACAGCAAACAAATGAGTTCTTATGTAACAACAGTGATGATTCGCTATTAAAATGCTGCCGTCAGTGAAAAATTTCCACCTAATTTTCAAAAACCTATTGACATGAGAAGATCTGTATTTTACTATTATCTCATATTCAAGATATTTTAATTTGAGATATTTGGTCGGAAAGATCAGCGATCAAGCGCAACTCTAAGTGTTCAATCGTTGTCAGTTCTTTTACACAATATTCAATATGATTTTTTATAACATAATATCTCGAATTCGAG (double strand) [PmneP -386/+118]”, the binding result with MntR (Bacillus subtilis) (1 mM Mn2+, complete shift at 0.1 uM) is reported as “binds”. “TCCTATAAAACTGCACAAAAAAATAGGAGTGCTCTATATACGCTCTCCGTATCCTTTCCTGTGTAATCACTTTGTTTATCATACCAATTCAATTTCGAGTGGGTCTATAGCAACGTTGTTTCCTGTTTACTAATAAATAAGGTGACAGAAAAAAAGTTGGAGCTATGCTAAAAAGGTCATACAGCAAACAAATGAGTTCTTATGTAACAACAGTGATGATTCGCTATTAAAATGCTGCCGTCAGTGAAAAATTTCCACCTAATTTTCAAAAACCTATTGACATGAGAAGATCTGTATTTTACTATTATCTCATATTCAAGATATTTTAATTTGAGATATTTGGTCGGAAAGATCAGCGATCAAGCGCAACTCTAAGTGTTCAATCGTTGTCAGTTCTTTTACACAATATTCAATATGATTTTTTATAACATAATATCTCGAATTCGAG (double strand) [PmneP 3' deletion]”: in the series with MntR (Bacillus subtilis) (1 mM Mn2+, scarce binding), the binding result is “binds more weakly”. Turning to “TTTAGTTTGGCAGGTTTTATTCTGGGACCATGGTAGGTTTTCTGACAAAAGTATTTCACAAACTGATATGATTCACTTATAATGAAATAAAGTTCAAAAATTCGGAAGCTTCCG (double strand) [PpxpA probe 5]”, the binding result in the series with MntR (Bacillus subtilis) (1 mM Mn2+) is recorded as “binds”.

The record behind these values is article PMC10448178.
